Measurements reported in the supplement of paper PMC10849652.
This is one part of the list.

Protein sequences, listed by entry. Tags and fused reporters are not part of them. Lines headed by an entry give the natural chain unless they say otherwise; changes in a name come on top.
UniProt Q04837: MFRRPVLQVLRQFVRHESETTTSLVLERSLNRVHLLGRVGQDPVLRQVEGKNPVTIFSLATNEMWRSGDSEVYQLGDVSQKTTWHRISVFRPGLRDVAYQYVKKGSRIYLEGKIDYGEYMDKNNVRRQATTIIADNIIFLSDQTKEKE
UniProt Q9BYN0: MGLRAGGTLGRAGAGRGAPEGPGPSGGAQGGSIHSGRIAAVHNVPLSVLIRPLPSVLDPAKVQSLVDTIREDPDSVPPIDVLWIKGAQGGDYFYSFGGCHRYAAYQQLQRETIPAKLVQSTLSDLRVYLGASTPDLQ
UniProt Q96EA4: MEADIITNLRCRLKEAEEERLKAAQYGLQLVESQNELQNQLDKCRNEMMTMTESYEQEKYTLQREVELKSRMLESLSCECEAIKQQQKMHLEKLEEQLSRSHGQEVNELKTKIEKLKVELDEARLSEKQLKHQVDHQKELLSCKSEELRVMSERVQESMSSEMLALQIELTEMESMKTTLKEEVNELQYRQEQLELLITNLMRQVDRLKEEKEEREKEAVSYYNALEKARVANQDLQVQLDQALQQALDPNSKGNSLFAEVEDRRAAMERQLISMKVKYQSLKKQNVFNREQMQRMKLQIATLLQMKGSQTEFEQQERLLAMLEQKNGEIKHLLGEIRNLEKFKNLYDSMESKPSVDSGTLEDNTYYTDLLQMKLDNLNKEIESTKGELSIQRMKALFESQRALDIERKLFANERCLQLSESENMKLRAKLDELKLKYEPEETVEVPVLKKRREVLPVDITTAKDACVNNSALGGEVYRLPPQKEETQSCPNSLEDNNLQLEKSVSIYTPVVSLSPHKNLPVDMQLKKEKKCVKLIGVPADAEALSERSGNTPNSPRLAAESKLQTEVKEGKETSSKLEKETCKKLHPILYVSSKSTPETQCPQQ
UniProt O15270: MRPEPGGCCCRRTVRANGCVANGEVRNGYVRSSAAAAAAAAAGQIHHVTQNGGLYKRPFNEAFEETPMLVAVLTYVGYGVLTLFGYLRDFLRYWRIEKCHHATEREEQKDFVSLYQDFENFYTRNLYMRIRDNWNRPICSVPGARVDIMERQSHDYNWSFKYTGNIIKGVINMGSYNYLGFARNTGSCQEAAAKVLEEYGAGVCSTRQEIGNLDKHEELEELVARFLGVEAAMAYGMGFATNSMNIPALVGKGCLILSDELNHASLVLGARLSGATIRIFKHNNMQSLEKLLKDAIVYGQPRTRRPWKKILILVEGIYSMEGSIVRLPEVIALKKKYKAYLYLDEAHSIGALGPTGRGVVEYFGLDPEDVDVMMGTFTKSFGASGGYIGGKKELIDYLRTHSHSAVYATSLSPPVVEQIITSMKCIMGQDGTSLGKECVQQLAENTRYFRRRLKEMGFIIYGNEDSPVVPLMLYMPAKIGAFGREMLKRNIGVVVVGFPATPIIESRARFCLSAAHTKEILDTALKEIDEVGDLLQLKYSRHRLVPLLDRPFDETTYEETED
UniProt P51571: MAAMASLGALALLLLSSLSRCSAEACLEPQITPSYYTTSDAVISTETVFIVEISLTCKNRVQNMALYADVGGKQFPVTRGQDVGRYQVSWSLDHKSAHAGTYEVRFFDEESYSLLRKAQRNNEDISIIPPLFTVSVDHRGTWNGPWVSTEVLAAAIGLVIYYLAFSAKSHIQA
UniProt O75177, whole entry, looked up: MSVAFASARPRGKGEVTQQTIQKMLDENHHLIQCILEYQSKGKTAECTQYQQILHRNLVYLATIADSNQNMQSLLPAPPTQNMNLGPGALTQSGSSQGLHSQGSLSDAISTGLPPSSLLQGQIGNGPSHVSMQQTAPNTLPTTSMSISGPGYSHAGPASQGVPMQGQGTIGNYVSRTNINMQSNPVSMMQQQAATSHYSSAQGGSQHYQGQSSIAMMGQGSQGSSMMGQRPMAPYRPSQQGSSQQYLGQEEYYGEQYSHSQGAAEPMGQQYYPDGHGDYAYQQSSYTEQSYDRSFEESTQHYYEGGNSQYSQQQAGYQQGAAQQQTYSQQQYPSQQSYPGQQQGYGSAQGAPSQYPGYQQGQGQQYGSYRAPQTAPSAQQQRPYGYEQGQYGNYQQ
UniProt P22528: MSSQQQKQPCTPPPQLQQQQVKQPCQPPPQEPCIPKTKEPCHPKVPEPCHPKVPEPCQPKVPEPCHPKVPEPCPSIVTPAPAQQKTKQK
UniProt O75716, whole entry, looked up: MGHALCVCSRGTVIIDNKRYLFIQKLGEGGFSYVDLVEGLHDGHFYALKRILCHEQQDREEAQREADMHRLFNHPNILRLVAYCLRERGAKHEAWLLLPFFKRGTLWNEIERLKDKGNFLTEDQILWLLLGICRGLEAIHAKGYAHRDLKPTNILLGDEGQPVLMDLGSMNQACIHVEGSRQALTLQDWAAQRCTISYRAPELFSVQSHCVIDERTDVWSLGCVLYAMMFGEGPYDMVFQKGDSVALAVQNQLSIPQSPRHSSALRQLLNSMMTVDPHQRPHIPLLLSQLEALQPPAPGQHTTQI
UniProt P61647: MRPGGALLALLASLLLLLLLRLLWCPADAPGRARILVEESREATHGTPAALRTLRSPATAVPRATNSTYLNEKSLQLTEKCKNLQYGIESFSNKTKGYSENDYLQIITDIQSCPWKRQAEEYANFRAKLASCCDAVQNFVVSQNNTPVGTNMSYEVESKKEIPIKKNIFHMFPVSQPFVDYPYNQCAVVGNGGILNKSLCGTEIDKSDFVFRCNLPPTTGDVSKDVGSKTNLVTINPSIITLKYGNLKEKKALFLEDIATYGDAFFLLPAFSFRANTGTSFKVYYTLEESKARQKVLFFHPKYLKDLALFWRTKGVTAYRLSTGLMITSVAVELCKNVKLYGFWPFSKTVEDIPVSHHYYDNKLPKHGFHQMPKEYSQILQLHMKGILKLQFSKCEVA
UniProt Q15532, whole entry, looked up: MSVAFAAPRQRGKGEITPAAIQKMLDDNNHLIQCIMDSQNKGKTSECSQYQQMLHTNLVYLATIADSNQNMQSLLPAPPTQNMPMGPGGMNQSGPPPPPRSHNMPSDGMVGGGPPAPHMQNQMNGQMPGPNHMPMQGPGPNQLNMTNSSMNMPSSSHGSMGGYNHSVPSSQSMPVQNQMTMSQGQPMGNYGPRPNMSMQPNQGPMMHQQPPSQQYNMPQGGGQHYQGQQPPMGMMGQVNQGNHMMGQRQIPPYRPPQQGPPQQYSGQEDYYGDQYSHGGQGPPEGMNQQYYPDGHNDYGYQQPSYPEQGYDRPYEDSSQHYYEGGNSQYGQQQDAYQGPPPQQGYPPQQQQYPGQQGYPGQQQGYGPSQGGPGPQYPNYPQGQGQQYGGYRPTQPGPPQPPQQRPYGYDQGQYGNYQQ
UniProt P43308: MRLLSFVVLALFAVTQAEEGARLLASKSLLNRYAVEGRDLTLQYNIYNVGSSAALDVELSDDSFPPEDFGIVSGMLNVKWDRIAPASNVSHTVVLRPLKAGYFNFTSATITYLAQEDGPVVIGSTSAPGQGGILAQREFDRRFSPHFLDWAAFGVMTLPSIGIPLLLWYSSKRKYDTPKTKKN
UniProt Q7Z699: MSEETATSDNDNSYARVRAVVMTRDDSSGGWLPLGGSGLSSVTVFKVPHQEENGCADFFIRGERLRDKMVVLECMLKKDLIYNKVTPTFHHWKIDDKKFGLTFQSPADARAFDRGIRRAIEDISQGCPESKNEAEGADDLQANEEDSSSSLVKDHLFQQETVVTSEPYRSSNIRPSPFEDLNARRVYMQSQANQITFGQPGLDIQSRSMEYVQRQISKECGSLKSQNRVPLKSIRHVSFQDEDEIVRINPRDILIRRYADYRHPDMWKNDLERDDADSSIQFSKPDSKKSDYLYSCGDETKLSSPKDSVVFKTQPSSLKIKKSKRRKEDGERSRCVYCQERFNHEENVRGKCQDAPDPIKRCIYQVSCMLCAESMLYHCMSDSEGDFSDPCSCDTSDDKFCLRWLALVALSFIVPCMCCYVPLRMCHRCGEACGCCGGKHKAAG
UniProt Q08AE8, whole entry, looked up: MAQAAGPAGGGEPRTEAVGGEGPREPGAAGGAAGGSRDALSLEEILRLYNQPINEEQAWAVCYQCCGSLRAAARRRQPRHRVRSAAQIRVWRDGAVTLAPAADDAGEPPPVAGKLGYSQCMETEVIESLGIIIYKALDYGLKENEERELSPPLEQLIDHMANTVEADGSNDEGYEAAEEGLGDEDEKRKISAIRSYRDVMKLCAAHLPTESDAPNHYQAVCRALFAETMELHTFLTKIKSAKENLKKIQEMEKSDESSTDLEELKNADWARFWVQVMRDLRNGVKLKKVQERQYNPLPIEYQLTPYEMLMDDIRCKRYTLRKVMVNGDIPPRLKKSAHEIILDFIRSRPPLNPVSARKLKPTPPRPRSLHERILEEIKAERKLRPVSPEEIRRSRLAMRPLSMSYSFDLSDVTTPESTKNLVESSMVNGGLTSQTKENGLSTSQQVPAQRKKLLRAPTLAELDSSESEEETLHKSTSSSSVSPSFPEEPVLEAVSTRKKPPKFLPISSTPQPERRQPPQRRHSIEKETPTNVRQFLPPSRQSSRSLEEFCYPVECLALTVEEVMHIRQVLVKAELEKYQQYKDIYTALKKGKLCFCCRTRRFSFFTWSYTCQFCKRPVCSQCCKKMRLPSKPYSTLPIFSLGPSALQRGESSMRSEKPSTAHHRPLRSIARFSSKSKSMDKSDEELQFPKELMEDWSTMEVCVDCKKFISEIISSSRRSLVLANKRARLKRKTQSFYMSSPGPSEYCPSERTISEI
UniProt P49842: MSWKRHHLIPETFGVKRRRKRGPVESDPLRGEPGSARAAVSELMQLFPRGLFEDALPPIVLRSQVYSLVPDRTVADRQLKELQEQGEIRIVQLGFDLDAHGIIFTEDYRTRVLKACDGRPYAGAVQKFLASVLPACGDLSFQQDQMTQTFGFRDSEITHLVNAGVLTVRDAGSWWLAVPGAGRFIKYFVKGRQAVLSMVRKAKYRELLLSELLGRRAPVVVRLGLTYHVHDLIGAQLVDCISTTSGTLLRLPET
UniProt P81877: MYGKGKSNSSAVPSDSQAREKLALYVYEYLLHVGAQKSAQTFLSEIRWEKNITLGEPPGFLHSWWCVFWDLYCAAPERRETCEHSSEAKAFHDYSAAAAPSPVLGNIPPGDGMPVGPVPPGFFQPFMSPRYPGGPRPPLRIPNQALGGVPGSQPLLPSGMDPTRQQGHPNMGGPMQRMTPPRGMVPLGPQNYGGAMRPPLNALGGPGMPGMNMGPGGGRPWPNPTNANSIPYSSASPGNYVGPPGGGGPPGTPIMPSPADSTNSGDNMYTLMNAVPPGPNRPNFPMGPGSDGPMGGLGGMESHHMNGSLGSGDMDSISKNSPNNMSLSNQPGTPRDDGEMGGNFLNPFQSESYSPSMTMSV
UniProt P35325: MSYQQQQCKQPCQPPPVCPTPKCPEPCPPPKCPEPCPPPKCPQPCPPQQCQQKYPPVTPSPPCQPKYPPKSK
UniProt Q68D10: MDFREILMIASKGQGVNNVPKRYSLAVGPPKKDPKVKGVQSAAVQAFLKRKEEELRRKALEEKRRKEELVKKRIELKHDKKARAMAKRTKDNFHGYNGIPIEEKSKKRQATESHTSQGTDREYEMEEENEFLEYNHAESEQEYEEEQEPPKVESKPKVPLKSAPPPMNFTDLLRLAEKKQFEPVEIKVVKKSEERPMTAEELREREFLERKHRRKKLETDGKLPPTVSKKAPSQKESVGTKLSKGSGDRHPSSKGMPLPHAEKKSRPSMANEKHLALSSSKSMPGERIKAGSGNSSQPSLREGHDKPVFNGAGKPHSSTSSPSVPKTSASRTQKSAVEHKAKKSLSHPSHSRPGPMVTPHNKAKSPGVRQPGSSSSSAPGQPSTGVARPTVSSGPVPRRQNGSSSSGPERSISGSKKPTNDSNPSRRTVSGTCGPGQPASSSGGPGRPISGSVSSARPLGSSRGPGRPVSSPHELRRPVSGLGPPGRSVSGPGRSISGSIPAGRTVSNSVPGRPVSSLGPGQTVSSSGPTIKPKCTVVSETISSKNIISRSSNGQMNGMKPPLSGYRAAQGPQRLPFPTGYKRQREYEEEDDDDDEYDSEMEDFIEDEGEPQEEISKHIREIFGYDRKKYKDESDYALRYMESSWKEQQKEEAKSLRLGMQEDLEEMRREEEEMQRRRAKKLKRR
UniProt Q8TCT6: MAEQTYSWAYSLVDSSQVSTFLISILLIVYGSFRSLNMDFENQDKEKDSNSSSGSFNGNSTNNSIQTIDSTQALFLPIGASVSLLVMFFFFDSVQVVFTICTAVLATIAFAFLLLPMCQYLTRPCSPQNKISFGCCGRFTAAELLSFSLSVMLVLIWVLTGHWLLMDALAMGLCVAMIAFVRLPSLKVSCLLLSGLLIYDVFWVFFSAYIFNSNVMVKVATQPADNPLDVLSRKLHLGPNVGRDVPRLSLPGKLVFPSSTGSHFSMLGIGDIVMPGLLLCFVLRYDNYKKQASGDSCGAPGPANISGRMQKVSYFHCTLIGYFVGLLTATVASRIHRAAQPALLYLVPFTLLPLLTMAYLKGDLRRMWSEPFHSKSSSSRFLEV
UniProt Q16384, whole entry, looked up: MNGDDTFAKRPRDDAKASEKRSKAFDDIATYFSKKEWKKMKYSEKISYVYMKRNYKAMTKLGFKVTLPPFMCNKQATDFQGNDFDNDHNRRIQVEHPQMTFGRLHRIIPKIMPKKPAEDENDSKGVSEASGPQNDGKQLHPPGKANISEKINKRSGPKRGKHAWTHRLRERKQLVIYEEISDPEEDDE

Assays:
Assay in all cases: log2 fold change, soluble protein after heating vs DMSO (PISA); higher = thermal stabilisation; K562 cells, 10 uM, 30 min; active = over 0.2 and 3.5 SD of the protein, either way, in both replicates (recomputed)
[1] = compound: CC1=C(C=C(C=C1)NC(=O)C2=CC(=CC=C2)C(C)(C)C#N)NC3=CC4=C(C=C3)N=CN(C4=O)C
Summary of the method: (§1)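 Values are thermal stability changes relative to control samples and are taken from duplicates. They are stated as log2 fold changes. Before quantification by TMTpro 16plex LC-MS/MS with equalised channel sums, K562 cells at 2×10^6 cells/mL were treated with 10 μM compound for 30 min, heated in aliquots for 3 min across 48°C-58°C, pooled, extracted in PBS with 0.5% NP-40 at 4°C, and centrifuged at 21,000xg for 90 min to give the soluble supernatant.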

[2] = compound: CC1=C(C=C(C=C1)NC(=O)C2=CC(=CC=C2)N(C)C)NC(=O)C3=CC=C(C=C3)O
Summary of the method: as §1

[3] = compound: CC1=NC(=CC=C1)C2=C(N=C(N2)C(C)(C)C)C3=CC4=NC=CN=C4C=C3
Summary of the method: as §1

Nexturastat A = compound: CCCCN(Cc1ccc(C(=O)NO)cc1)C(=O)Nc1ccccc1 [Nexturastat A]
Summary of the method: as §1

barasertib = compound: CCN(CCCOc1ccc2c(Nc3cc(CC(=O)Nc4cccc(F)c4)[nH]n3)ncnc2c1)CCOP(=O)(O)O [barasertib]
Summary of the method: as §1

[4] = compound: CC1=CC=C(C=C1)SC2=C3C=C(SC3=CN=C2)C(=O)N
Summary of the method: as §1

vemurafenib = compound: CCCS(=O)(=O)Nc1ccc(F)c(C(=O)c2c[nH]c3ncc(-c4ccc(Cl)cc4)cc23)c1F [vemurafenib]
Summary of the method: as §1

[5] = compound: CCCS(=O)(=O)Nc1ccc(F)c(C(=O)c2c[nH]c3ncc(Cl)cc23)c1F
Summary of the method: as §1

[6] = compound: CCCc1cc(C)[nH]c(=O)c1CNC(=O)c1cc(-c2ccnc(N3CCN(C)CC3)c2)cc2c1cnn2C(C)C
Summary of the method: as §1

givinostat = compound: CCN(CC)Cc1ccc2cc(COC(=O)Nc3ccc(C(=O)NO)cc3)ccc2c1 [givinostat]
Summary of the method: as §1

Measured: log2 fold change

SPIRE2 (UniProt Q8WWL2)
inactive: [1] 0.155 | [2] 0.455 | [3] 0.244 | Nexturastat A -0.616 | barasertib -0.109

STARD9 (UniProt Q9P2P6)
inactive: [1] -0.29 | [2] 0.01 | [4] -0.07 | [3] -0.048 | Nexturastat A 0.144 | vemurafenib -0.161 | [5] 0.029 | [6] -0.035 | givinostat -0.046 | barasertib -0.017

SSBP4 (UniProt Q9BWG4)
inactive: [1] 0.056 | [2] -0.017 | [4] -0.133 | [3] 0.003 | [5] 0.021 | [6] -0.036 | givinostat -0.042 | barasertib 0.053

STAU2 (UniProt Q9NUL3)
inactive: [1] 0.019 | [4] -0.04 | [3] -0.079 | Nexturastat A 0.626 | vemurafenib -0.222 | [5] -0.149 | [6] 0.162 | givinostat 0.062 | barasertib -0.109

SSBP1 (UniProt Q04837)
inactive: [1] -0.052 | [2] -0.006 | [4] -0.023 | [3] -0.105 | Nexturastat A 0.052 | vemurafenib -0.04 | [5] -0.054 | [6] -0.036 | givinostat -0.004 | barasertib -0.015

SPARC (UniProt P09486)
inactive: [1] 0.011 | [2] 0.117 | [4] -0.018 | [3] 0.054 | Nexturastat A 0.079 | vemurafenib 0.07 | [5] -0.029 | [6] -0.027 | givinostat 0.015 | barasertib -0.006

SRXN1 (UniProt Q9BYN0)
inactive: [1] -0.149 | [2] 0.01 | [4] 0.04 | [3] 0.089 | Nexturastat A -0.036 | vemurafenib 0.142 | [5] 0.017 | [6] -0.027 | barasertib 0.012

SPG21 (UniProt Q9NZD8)
inactive: [1] -0.108 | [2] -0.157 | [4] -0.003 | [3] 0.057 | Nexturastat A 0.016 | vemurafenib 0.044 | [5] -0.044 | [6] 0.057 | givinostat -0.014 | barasertib 0.026

SRP19 (UniProt P09132)
inactive: [1] 0.023 | [2] -0.011 | [4] 0.106 | [3] -0.006 | Nexturastat A 0.045 | vemurafenib 0.011 | [5] 0.078 | [6] -0.048 | givinostat 0.02 | barasertib 0.052

STK26 (UniProt Q9P289)
inactive: [1] -0.083 | [2] -0.037 | [4] 0.068 | [3] 0.015 | Nexturastat A 0.044 | vemurafenib -0.04 | [5] -0.03 | [6] 0.014 | givinostat 0.086 | barasertib 0.08

SPTB isoform 2 (UniProt P11277)
inactive: [1] -0.447 | [2] 0.031 | [4] 0.036 | [3] -0.234 | Nexturastat A 0.068 | vemurafenib 0.018 | [5] 0.107 | [6] 0.167 | givinostat 0.192 | barasertib 0.156

SSU72 (UniProt Q9NP77)
inactive: [1] 0.069 | [4] 0.143 | [3] 0.187 | Nexturastat A 0.011 | vemurafenib 0.147 | [5] 0.086 | [6] -0.1 | givinostat 0.247 | barasertib -0.111

SSBP3 (UniProt Q9BWW4)
inactive: [1] 0.011 | [2] -0.019 | [4] -0.009 | Nexturastat A -0.065 | vemurafenib -0.001 | [5] 0.031 | [6] -0.013 | givinostat -0.009 | barasertib 0.021

SQLE (UniProt Q14534)
inactive: [1] -0.009 | [2] -0.047 | [4] 0.064 | [3] -0.047 | Nexturastat A 0.003 | vemurafenib 0.034 | [5] 0.032 | [6] 0.054 | givinostat 0.046 | barasertib -0.022

SPDL1 (UniProt Q96EA4)
inactive: [1] -0.206 | [2] -0.258 | [4] -0.193 | [5] 0.213 | givinostat 0.282

SRP9 (UniProt P49458)
inactive: [1] 0.003 | [2] -0.008 | [4] -0.043 | [3] -0.106 | Nexturastat A 0.198 | vemurafenib -0.111 | [5] -0.026 | [6] 0.084 | givinostat 0.003 | barasertib -0.117

SPTLC2 (UniProt O15270)
inactive: [1] 0.049 | [2] -0.019 | [4] 0.007 | [3] 0.015 | Nexturastat A -0.06 | vemurafenib 0.005 | [5] 0.021 | [6] -0.001 | givinostat 0.003 | barasertib 0.026

SSR4 (UniProt P51571)
inactive: [1] -0.004 | [2] 0.012 | [4] 0.064 | [3] 0.039 | Nexturastat A -0.046 | vemurafenib -0.014 | [5] 0.081 | [6] -0.035 | givinostat 0.03 | barasertib -0.052

STIM2 isoform 2 (UniProt Q9P246)
inactive: [4] 0.001 | Nexturastat A -0.029 | vemurafenib 0.1 | [5] -0.038 | givinostat 0.034

SPHK2 isoform 5 (UniProt Q9NRA0)
inactive: [1] 0.055 | [4] 0.149 | [5] -0.064

SPEN (UniProt Q96T58)
inactive: [2] -0.134 | [4] -0.056 | Nexturastat A 0.089 | vemurafenib 0.005 | [5] -0.071 | [6] 0.06 | givinostat 0.076 | barasertib -0.024

SPIN4 (UniProt Q56A73)
inactive: [3] -0.601 | givinostat -0.245

SQOR (UniProt Q9Y6N5)
inactive: [1] -0.099 | Nexturastat A 0.085 | vemurafenib -0.163 | givinostat 0.111

SPATS2L isoform 3 (UniProt Q9NUQ6)
inactive: [1] -0.04 | Nexturastat A 0.545

SS18L1 (UniProt O75177)
inactive: [4] -0.172 | [5] -0.016

SRD5A3 (UniProt Q9H8P0)
inactive: [2] 0.124 | [3] 0.148 | [6] -0.066 | givinostat -0.015 | barasertib -0.207

SPRR1B (UniProt P22528)
inactive: [6] 0.07

STK16 (UniProt O75716)
inactive: [3] 0.141 | Nexturastat A -0.032 | givinostat 0.033

ST8SIA6 (UniProt P61647)
inactive: [1] -0.125 | [3] -0.354 | vemurafenib -0.266 | barasertib 0.026

SSBP4 (UniProt U3KPY3)
inactive: vemurafenib -0.095 | [6] -0.028

ST3GAL4 isoform 4 (UniProt Q11206)
inactive: [1] -0.004 | Nexturastat A -0.053 | givinostat 0.094 | barasertib 0.037

SS18 (UniProt Q15532)
inactive: [2] -0.212 | [4] 0.065 | vemurafenib 0.521 | [5] -0.034 | [6] -0.004 | givinostat 0.037 | barasertib 0.13

SSR2 (UniProt P43308)
inactive: [6] -0.106

STK17B (UniProt O94768)
inactive: [3] 0.031 | givinostat 0.16 | barasertib 0.29

2 entries picked at random from the list so far, as already listed:
ST3GAL4 isoform 4 (UniProt Q11206)
inactive: [1] -0.004 | Nexturastat A -0.053 | givinostat 0.094 | barasertib 0.037

SSBP4 (UniProt U3KPY3)
inactive: vemurafenib -0.095 | [6] -0.028

(further entries)

STC2 (UniProt O76061)
inactive: [2] 0.073 | [4] -0.142 | vemurafenib 0.15 | [5] -0.118 | givinostat -0.069 | barasertib 0

SRCIN1 (UniProt Q9C0H9)
inactive: [2] 0.035 | vemurafenib 0.107 | givinostat -0.104 | barasertib -0.13

SPTAN1 isoform 3 (UniProt Q13813)
inactive: vemurafenib 0.039

STARD10 (UniProt Q9Y365)
inactive: [1] -0.026 | Nexturastat A 0.207 | vemurafenib 0.101 | givinostat 0.094

SSB (UniProt E7ERC4)
inactive: vemurafenib 0.264 | [6] 0.283

SPRED1 (UniProt Q7Z699)
inactive: [2] -0.176 | Nexturastat A -0.035 | vemurafenib -0.062

SPATS2 (UniProt Q86XZ4)
inactive: vemurafenib -0.027 | givinostat 0.113

SREBF2 (UniProt Q12772)
inactive: [1] -0.046 | [3] 0.103 | Nexturastat A -0.04 | vemurafenib -0.156 | [6] -0.032 | givinostat 0.085 | barasertib 0.071

SREBF1 isoform 4 (UniProt P36956)
inactive: [3] 0.035 | Nexturastat A 0.063 | givinostat 0.051 | barasertib -0.071
active: [6] -0.932

SPP2 (UniProt Q13103)
inactive: [1] -0.044 | Nexturastat A 0.055 | vemurafenib 0.104 | givinostat -0.016 | barasertib 0.012

SPICE1 (UniProt Q8N0Z3)
inactive: barasertib 0.074

SPIRE1 (UniProt Q08AE8)
inactive: [2] 0.013 | [3] -0.025 | Nexturastat A 0.31 | vemurafenib -0.011 | [6] -0.062 | givinostat 0.185 | barasertib -0.014

STAB1 (UniProt Q9NY15)
inactive: [2] -0.067 | [4] -0.113 | [3] -0.058 | Nexturastat A 0.188 | vemurafenib -0.001 | [5] -0.236 | [6] -0.149 | givinostat -0.016 | barasertib 0.064

ST3GAL1 (UniProt Q11201)
inactive: [4] -0.13 | Nexturastat A -0.051 | [5] 0.007

STK19 (UniProt P49842)
inactive: [2] 0.236

SRRD (UniProt Q9UH36)
inactive: [1] -0.101 | [4] -0.01 | [3] -0.122 | Nexturastat A -0.039 | [5] 0 | [6] 0.204 | givinostat -0.02 | barasertib 0.115

SRBD1 (UniProt Q8N5C6)
inactive: Nexturastat A 0.072

SSBP2 (UniProt P81877)
inactive: [2] -0.036 | [4] 0.056 | Nexturastat A -0.043 | [5] 0.409 | [6] 0.177 | barasertib -0.113

SRGAP1 (UniProt Q7Z6B7)
inactive: [2] 0.038 | [4] 0.064 | [3] -0.003 | Nexturastat A 0.074 | vemurafenib 0.119 | [5] 0.017 | [6] 0.128 | barasertib 0.047

STAR (UniProt P49675)
inactive: [2] 0.041 | vemurafenib -0.095 | [6] -0.299

SPRR2B (UniProt P35325)
inactive: Nexturastat A -0.058 | vemurafenib -0.384 | [6] -0.011 | givinostat 0.091 | barasertib -0.104

SPTY2D1 (UniProt Q68D10)
inactive: Nexturastat A 0.156

SPPL3 (UniProt Q8TCT6)
inactive: [6] 0.018 | givinostat 0.014

SSX1 (UniProt Q16384)
inactive: [4] -0.007 | Nexturastat A 0.254 | [5] -0.007 | barasertib 0.032
